# PubChem BioAssay AID2685 (National Center for Advancing Translational Sciences (NCATS), 2010)
# The list shows a part of the results. The main result of the screen is listed elsewhere. These columns were measured beside it and carry no call. Most of these compounds were active or inconclusive in the main read-out, so they are no random draw. Potencies come from curve fits of mixed quality, noted in brackets.
# Experiment: qHTS Assay for Lipid Storage Modulators in Drosophila S3 Cells;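 as to cell number change: cells counted by Cell Tracker Red CMTPX staining in the red channel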
# Conditions: BODIPY lipid droplet fluorescence, 18-24 h; for cell number change: measured here: cell count max response, cells fed with added oleic acid
# Outline: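 Drosophila S3 cells loaded with oleic acid (400 uM, as added) and compounds at several concentrations; lipid droplets imaged by 488-nm laser-scanning cytometry, 500–530 nm intensity and object ratio to cell channel. Percent activity normalized to 20 uM Triacsin C.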
# [1] = measured here: lipid fluorescence (Fed channel) AC50, cells fed with added oleic acid
# [2] = measured here: cell number channel AC50, cells fed with added oleic acid
Compound,cell number change,AC50 [1],AC50 [2]
COC(=O)c1ccccc1NC(=O)N1CCN(Cc2ccco2)CC1,15.8%,"0.103 µM [falling, full curve, poor fit]",–
COc1ccc(CCC(=O)N2CCN(S(=O)(=O)c3ccc(OC)cc3)CC2)cc1,0.564%,–,–
Cc1ccc(NC(=O)CN2CCN(C(=O)c3ccco3)CC2)cc1,15.1%,–,–
Cc1cc2cc(CN(Cc3ccco3)C(=O)NCc3ccccc3)c(=O)[nH]c2cc1C,–,"0.92 µM [rising, full curve]","6.51 µM [rising, single point]"
CCn1c(SCC(=O)N(C)c2ccccc2)nc2c([nH]c3ccccc32)c1=O,-24.6%,–,"4.11 µM [falling, full curve, poor fit]"
CCC(Oc1ccccc1)C(=O)N1CCN(C(=O)C(CC)Oc2ccccc2)CC1 (stereo not drawn),-0.53%,"6.51 µM [falling, single point]",–
CCOc1ccc(Cc2c(C)[nH]c3ccc(C(=O)O)cc3c2=S)cc1,3.17%,"0.291 µM [rising, full curve]",–
Cc1ccc(S(=O)(=O)NCC(c2ccco2)S(=O)(=O)c2ccccc2)cc1 (stereo not drawn),–,"6.51 µM [falling, single point]",–
CCN(CC)S(=O)(=O)c1cccc(NC(=O)COC(=O)CCC(=O)c2ccc(F)cc2)c1,69.5%,"6.51 µM [rising, single point]","6.51 µM [falling, single point]"
O=c1oc2ccccc2cc1-c1cn(-c2ccccc2)c(=S)[nH]1,3.49%,"1.64 µM [rising, partial curve, poor fit]",–
Cc1nnc(N2CCC(C(=O)N3CCCCC3)CC2)c2nn(-c3ccc(Cl)cc3)c(C)c12,-106%,"29.1 µM [falling, single point]","29.1 µM [falling, single point]"
Cc1ccc(CCP(=O)(O)CN2CCOCC2)cn1,-13.3%,"0.651 µM [falling, partial curve, poor fit]","0.0206 µM [falling, full curve, poor fit]"
COc1cccc(-c2cc(C(=O)N3CCN(S(=O)(=O)c4ccc(Br)cc4)CC3)[nH]n2)c1,–,"4.11 µM [falling, full curve, poor fit]",–
N#CC1=C2SCC(O)(c3ccccc3)N2C(=O)CC1c1ccccc1F (stereo not drawn),223%,–,"18.4 µM [rising, partial curve]"
COc1cc(OC)cc(C(=O)Nc2ncc3c(n2)CC(C)(C)CC3=O)c1,2.44%,"0.13 µM [falling, full curve, poor fit]",–
CCC(c1nnnn1C(C)(C)CC)N(CCCO)Cc1cc2cc(C)cc(C)c2[nH]c1=O (stereo not drawn),40.9%,"2.91 µM [rising, partial curve]","2.59 µM [rising, full curve]"
O=C(O)c1ccc(-n2cccn2)c([N+](=O)[O-])c1,23.9%,"18.4 µM [falling, partial curve]",–
COc1ccc2nc(NC(=O)CSCC(=O)Nc3cc(C)on3)sc2c1,8.5%,–,–
COC(=O)CCC(=O)OC1(C)C(=O)C2=CN(CCCCO)C(c3ccc(OC)cc3)=CC2=C(Br)C1=O (stereo not drawn),15.6%,"1.03 µM [rising, single point]","7.31 µM [rising, partial curve, poor fit]"
CC(C)C(NC(=O)/C=C/c1cccc([N+](=O)[O-])c1)C(C)C,-23.6%,"29.1 µM [falling, single point]","0.731 µM [rising, full curve]"

Compound,cell number change,AC50 [1],AC50 [2]
O=C1CN(C(=O)c2cccc(Br)c2)c2ccccc2N1,15.8%,"1.16 µM [falling, single point]",–
CCCC(=O)OC1CC(C)N(C(=O)c2ccccc2)c2ccc(C)cc21 (stereo not drawn),-24.9%,"29.1 µM [falling, single point]",–
COc1ccc(OC)c(NC(=S)NCCSc2ccc(C)cc2)c1,–,"23.1 µM [falling, partial curve, poor fit]",–
CCC(C)(C)NC(=O)c1ccccc1Oc1ccccc1,99.7%,–,"0.651 µM [falling, partial curve]"
COc1ccc(CC(=O)NC2CCS(=O)(=O)C2)cc1 (stereo not drawn),3.38%,"29.1 µM [falling, single point]",–
OC1(c2ccc3ccccc3c2)CCN(Cc2ccccc2)C1 (stereo not drawn),17.8%,–,–
O=C(N/N=C/c1cccnc1)c1cccs1,13%,"7.31 µM [rising, single point]",–
Nn1cnnc1N/N=C/c1ccc(F)cc1,-11.1%,"20.6 µM [falling, single point]",–
CC1CCCN(CCCNC(=O)c2coc3nc4ccccc4nc23)C1 (stereo not drawn),134%,–,"0.0731 µM [falling, full curve, poor fit]"
Cn1c(=NC(=O)COc2ccccc2)sc2ccccc21,31.8%,"0.92 µM [rising, full curve, poor fit]","0.082 µM [rising, full curve, poor fit]"
COC(=O)c1ccc(-n2nnnc2SCc2nn[nH]n2)cc1,-19.7%,–,"0.731 µM [falling, full curve]"
COC(=O)c1ccc(Sc2ccccn2)c([N+](=O)[O-])c1,171%,"5.8 µM [rising, full curve]","6.51 µM [rising, full curve]"
CC(Sc1cnc2ccccc2n1)C(=O)O (stereo not drawn),–,"0.116 µM [rising, full curve, poor fit]",–
Cc1nc2ccccc2c(C)c1CC(=O)OC(C)C(=O)NC1(C#N)CCCCC1 (stereo not drawn),–,–,"3.66 µM [rising, partial curve]"
C#CCOC(=O)Nc1ccc(=O)n(Cc2c(Cl)cccc2Cl)c1,–,"16.4 µM [rising, single point]",–
CC1CCCCN1CCNC(=O)CC1Oc2ccccc2NC1=O (stereo not drawn),7.49%,"0.164 µM [rising, full curve, poor fit]",–
CC(C)Cn1c2c(c(O)c(C(=O)Nc3ncccc3O)c1=O)CCCC2,–,"0.651 µM [falling, single point]",–
Cc1cccc(C(=O)NNC(=O)c2ccc(F)cc2)c1,-15.7%,"9.2 µM [rising, partial curve]","3.66 µM [falling, partial curve]"
COc1ccc(/C=C/C(=O)Nc2ccc(S(=O)(=O)Nc3onc(C)c3C)cc2)cc1OC,8.56%,"35.5 µM [rising, single point]",–
CC(=O)NC(Cc1cccc(F)c1)C(=O)NC1CCN(C(=O)c2ccc(C)cc2)CC1 (stereo not drawn),7.4%,–,"6.51 µM [falling, single point]"

# Reformatted: results already given.
Compound	cell number change	AC50 [1]	AC50 [2]
CCC(C)(C)NC(=O)c1ccccc1Oc1ccccc1	99.7%	–	0.651 µM [falling, partial curve]
CC(=O)NC(Cc1cccc(F)c1)C(=O)NC1CCN(C(=O)c2ccc(C)cc2)CC1 (stereo not drawn)	7.4%	–	6.51 µM [falling, single point]

# Continuation.

Compound,cell number change,AC50 [1],AC50 [2]
CCOc1ccc(NC(=O)CN(C)c2ccc(S(=O)(=O)N(C(C)C)C(C)C)cn2)cc1OCC,-3.57%,"4.11 µM [rising, single point]",–
Cc1ccc(NC2=NCC(=O)N2Cc2cccs2)cc1C,-13.7%,"0.164 µM [falling, full curve, poor fit]",–
Cn1nnnc1SCc1nc2ccccc2s1,0.262%,–,–
COc1cc(CCC(=O)OCC(=O)NCc2ccc(Cl)cc2)cc(OC)c1OC,126%,–,–
O=C(O)CCC(=O)NCc1ccc(C(=O)O)cc1,-31.4%,"20.6 µM [falling, partial curve]","0.058 µM [falling, full curve, poor fit]"
Cc1ccc(/C=C2\CCCC3=C2NC(=S)NC3c2ccc(C)cc2)cc1 (stereo not drawn),6.33%,"0.731 µM [falling, full curve, poor fit]",–
Cc1ccc(C)c(OCCC(=O)OCC(=O)NC(=O)NCc2ccccc2)c1,7.63%,–,–
Cc1c(C(=O)NCCCN2CCCC2=O)oc2ccccc12,1.56%,–,–
CC(C)N1C(=O)C(=O)N(CC(=O)N(C)c2ccccc2)C1=O,20.8%,"1.84 µM [rising, partial curve, poor fit]",–
Cc1cc(C)c(-c2cc(NC(=O)COC(=O)c3ccc(CO)cc3)n(-c3ccccc3)n2)cc1C,-8.83%,"1.64 µM [rising, partial curve]",–
O=C(O)/C=C/c1cnn(-c2ccccc2)c1,-12.2%,"0.0651 µM [falling, full curve]",–
CCOCCCNC(=O)C(c1ccc(Cl)cc1)N(Cc1cccs1)C(=O)c1ccccn1 (stereo not drawn),-16.2%,"18.4 µM [falling, single point]",–
Cc1ccc(-c2nnc3ccc(SCC(=O)N4CCc5ccccc54)nn23)cc1,–,"0.291 µM [rising, partial curve, poor fit]",–
COc1cccc(-n2c(Cc3cc(=O)[nH]c(=O)[nH]3)nnc2SCC(=O)NC2CCCCC2)c1,40.2%,"29.1 µM [rising, single point]","16.4 µM [rising, partial curve]"
Cc1ccc(CNC(=O)CC(C)S(=O)(=O)c2ccc3c(c2)NC(=O)C(C)S3)cc1 (stereo not drawn),-21.9%,"29.1 µM [falling, single point]",–
O=C(Cc1ccccc1)Nc1ccccc1C(=O)NCC1CCCO1 (stereo not drawn),-16.2%,–,–
CCn1c(=O)c([N+](=O)[O-])c(NCCc2ccc(OC)c(OC)c2)c2ccccc21,–,"13 µM [rising, partial curve, poor fit]",–
COc1ccc(NC(=O)Nc2ccccc2C(N)=O)cc1OC,1.66%,"0.58 µM [rising, single point]",–
CSc1ccc(COC(=O)CCS(=O)(=O)c2ccc(C)cc2)cc1,–,–,"6.51 µM [falling, single point]"
O=C(/C=C/c1c(Cl)cccc1Cl)Nc1ccncc1,3.47%,"0.651 µM [falling, single point]","0.651 µM [falling, single point]"
